Test results from article PMC10808074, “Regulation of micro- and small-exon retention and other splicing processes by GRP20 for flower development”.

Molecular target: T1, GRP20 (RBDm) M102A,W103A,Y105A,K106A,K107A (Arabidopsis thaliana) (UniProt Q7DV38)
T1 sequence (looked up): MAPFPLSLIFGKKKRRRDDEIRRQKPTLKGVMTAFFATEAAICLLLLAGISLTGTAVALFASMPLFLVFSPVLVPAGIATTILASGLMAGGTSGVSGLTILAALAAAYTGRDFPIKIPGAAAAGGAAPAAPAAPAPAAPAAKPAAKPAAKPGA
Assay: EMSA
Settings: negative protein control; Probes: 400 fmol RNA, 17 ug protein, 1x binding buffer (Molecular Probes E33075 kit), room temp 30 min, 5% native PAGE, SYBR Green; pre-mRNA: 500 ng RNA in 10 mM HEPES; recombinant protein; residues 1-153; protein details: N-terminal His6-SUMO

## AGGAGAAGGCC [AP1-probe]
  binding result: no binding

Negatives hold for the conditions tested. At least one verdict rests on a figure or table, not on a statement of the authors. Protein sequences can lack the tags named with them.
